Measured values published in paper PMC5577305.
Results are given in words; binding and its absence hold for the method and conditions named. In cells and extracts the contact can be indirect. Some results given as binding are weak or reduced against the parent protein; the word gives no strength.

Chains of the proteins cited; added tags and fusions are not shown. Lines headed by an entry give the natural chain unless they say otherwise; changes in a name come on top. A line that says so, or that is headed by a name, gives the form on record, which may keep a tag or linker.
ΔF508-CFTR containing a C-terminal HA-tag (P13569, form named): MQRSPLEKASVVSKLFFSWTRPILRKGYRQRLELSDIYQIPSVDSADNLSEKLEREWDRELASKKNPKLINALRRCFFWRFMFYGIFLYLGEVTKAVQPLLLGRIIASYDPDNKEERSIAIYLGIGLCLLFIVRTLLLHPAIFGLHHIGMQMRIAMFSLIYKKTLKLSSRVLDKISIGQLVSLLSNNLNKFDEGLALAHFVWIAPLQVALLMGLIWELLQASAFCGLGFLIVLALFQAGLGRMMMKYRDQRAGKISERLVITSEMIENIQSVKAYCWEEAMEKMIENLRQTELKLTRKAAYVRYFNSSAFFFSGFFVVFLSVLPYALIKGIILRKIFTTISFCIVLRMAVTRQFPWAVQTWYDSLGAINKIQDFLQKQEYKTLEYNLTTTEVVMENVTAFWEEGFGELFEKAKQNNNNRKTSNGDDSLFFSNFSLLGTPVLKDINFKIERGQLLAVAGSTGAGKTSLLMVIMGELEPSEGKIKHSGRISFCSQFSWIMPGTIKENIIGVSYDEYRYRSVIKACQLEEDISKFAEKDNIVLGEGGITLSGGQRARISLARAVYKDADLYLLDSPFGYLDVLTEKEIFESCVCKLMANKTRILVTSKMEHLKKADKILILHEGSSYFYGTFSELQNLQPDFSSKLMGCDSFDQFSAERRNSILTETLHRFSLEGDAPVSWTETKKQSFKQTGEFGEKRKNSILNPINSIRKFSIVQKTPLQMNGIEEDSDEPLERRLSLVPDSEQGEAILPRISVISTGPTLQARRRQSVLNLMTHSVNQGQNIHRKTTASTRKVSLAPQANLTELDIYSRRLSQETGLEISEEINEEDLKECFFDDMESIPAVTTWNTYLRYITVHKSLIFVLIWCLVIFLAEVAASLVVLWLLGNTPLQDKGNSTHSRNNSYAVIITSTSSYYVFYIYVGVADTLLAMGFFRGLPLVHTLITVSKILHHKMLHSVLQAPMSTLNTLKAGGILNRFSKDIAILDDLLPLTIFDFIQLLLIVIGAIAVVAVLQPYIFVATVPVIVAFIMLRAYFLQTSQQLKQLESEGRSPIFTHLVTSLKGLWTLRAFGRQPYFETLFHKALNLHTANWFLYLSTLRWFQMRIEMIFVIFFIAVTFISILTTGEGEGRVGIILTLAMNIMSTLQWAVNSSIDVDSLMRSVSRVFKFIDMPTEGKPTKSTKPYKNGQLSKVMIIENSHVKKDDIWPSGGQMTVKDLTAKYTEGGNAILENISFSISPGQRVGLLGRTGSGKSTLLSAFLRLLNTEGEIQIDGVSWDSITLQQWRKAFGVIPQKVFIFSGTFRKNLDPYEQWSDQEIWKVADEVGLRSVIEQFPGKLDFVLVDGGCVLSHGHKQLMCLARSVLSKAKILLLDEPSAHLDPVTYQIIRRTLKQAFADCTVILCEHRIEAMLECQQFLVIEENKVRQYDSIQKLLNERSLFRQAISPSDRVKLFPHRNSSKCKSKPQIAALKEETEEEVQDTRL
UniProt G3HD21: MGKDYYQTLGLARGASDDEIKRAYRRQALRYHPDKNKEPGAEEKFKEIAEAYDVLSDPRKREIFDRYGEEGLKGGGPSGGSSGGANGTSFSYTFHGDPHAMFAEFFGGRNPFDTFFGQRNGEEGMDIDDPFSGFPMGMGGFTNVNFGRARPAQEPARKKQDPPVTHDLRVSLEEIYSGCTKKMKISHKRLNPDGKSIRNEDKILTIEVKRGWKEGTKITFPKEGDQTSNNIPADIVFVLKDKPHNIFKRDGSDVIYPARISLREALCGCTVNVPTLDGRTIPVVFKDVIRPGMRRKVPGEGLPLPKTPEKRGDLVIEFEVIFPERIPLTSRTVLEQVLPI
UniProt P19378: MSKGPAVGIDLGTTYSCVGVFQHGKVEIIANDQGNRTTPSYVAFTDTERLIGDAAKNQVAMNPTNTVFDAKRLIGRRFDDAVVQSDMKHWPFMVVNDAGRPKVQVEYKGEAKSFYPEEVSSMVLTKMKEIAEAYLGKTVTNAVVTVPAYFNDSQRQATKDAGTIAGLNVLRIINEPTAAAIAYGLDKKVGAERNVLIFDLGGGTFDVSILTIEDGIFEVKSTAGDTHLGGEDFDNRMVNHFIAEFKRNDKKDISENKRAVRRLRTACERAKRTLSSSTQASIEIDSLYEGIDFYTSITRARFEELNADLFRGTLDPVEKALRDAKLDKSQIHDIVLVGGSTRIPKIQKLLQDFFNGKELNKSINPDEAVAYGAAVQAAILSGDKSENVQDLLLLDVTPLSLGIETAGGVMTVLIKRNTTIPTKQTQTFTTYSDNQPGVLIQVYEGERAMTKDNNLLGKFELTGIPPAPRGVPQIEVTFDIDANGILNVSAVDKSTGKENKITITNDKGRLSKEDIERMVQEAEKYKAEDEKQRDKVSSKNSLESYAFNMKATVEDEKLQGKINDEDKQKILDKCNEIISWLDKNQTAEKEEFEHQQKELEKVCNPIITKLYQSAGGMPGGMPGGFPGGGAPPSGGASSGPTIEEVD

Tests used:
[1] = molecular target: ΔF508-CFTR containing a C-terminal HA-tag (UniProt P13569); test: co-IP; cells cross-linked with 0.1 mM dithiobis[succinimidyl propionate] (DSP) after cycloheximide chase (2.5 h, 26 or 37 °C); CFTR-HA precipitated with anti-HA antibody from BHK-21 lysate; DSP reduced with 100 mM DTT before SDS-PAGE; blot for co-chaperones
[2] = molecular target: ΔF508-CFTR containing a C-terminal HA-tag (UniProt P13569); test: co-IP; CFTR-HA precipitated with anti-HA antibody and protein G beads from ~5 mg BHK-21 lysate (150 mM NaCl, 20 mM Tris, 0.1% NP-40, pH 7.4), 4 °C; IP probed for Hsc70/Hsp90; cells rescued at 26 °C, then cycloheximide chase at 26 °C or 37 °C; IP without or with 2 mM ATP plus 1 mM MgCl2 or 150 U/ml apyrase

Row | binding [1] | binding [2] | Substance
1 | binds | – | Hdj1 (from UniProt G3HD21 1-340)
2 | – | binds | Hsc70 (HSPA8) (from UniProt P19378 1-646)
